{"source": "PubChem BioAssay AID504804 (Drosophila RNAi Screening Center, 2011)", "purpose": "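Knock-downs shielding fly cells from apoptosis caused by DNA damage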 (primary screen)", "cells": "Drosophila Kc cells", "reagent": "long dsRNA against Drosophila genes, 0.5 µg dsRNA per well", "timing": "96 h (48 h knock-down, then 48 h drug)", "conditions": "doxorubicin 5 µg/ml for 48 h, added 48 h after dsRNA", "read-out": "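Viability measured as cellular ATP by luminescence after 48 h knock-down then 48 h doxorubicin at 5 µg/ml; unnormalised plate counts for each replicate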", "reading the numbers": "raw ATP luminescence: higher = more viable cells, protection from doxorubicin", "call rule": "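Active when both duplicate wells lie at least 2 SD above the plate mean and protection is confirmed by rescreening and independent dsRNAs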", "note": "The screen tested about 19,000 reagents; shown is a random part of those with a known target gene and a result. In the full data, 47 (0.25%) were called active. 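Signals are raw, not normalised; exact z-scores behind calls not deposited; actives needed confirmation, so some wells reaching 2 SD are inactive.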 Unmarked entries are inactive. Names joined by + are all predicted targets of the reagent."}
{"Target gene":"CG9674 (GeneID 39878)","dsRNA":"DRSC11088","raw ATP luminescence, replicate 1":26023,"raw ATP luminescence, replicate 2":20313}
{"Target gene":"CG9674 (GeneID 39878)","dsRNA":"DRSC11089","raw ATP luminescence, replicate 1":67650,"raw ATP luminescence, replicate 2":53220}
{"Target gene":"Sh3beta (GeneID 38820)","dsRNA":"DRSC11001","raw ATP luminescence, replicate 1":29433,"raw ATP luminescence, replicate 2":47120}
{"Target gene":"CG4306 (GeneID 40017)","dsRNA":"DRSC10409","raw ATP luminescence, replicate 1":45880,"raw ATP luminescence, replicate 2":34813}
{"Target gene":"CG15185 (GeneID 40798)","dsRNA":"DRSC12565","raw ATP luminescence, replicate 1":63927,"raw ATP luminescence, replicate 2":59640}
{"Target gene":"Ent3 (GeneID 39461)","dsRNA":"DRSC09822","raw ATP luminescence, replicate 1":58573,"raw ATP luminescence, replicate 2":55377}
{"Target gene":"mago (GeneID 37402)","dsRNA":"DRSC04703","raw ATP luminescence, replicate 1":32167,"raw ATP luminescence, replicate 2":40740}
{"Target gene":"CG16853 (GeneID 34771)","dsRNA":"DRSC01877","raw ATP luminescence, replicate 1":74877,"raw ATP luminescence, replicate 2":77163}
{"Target gene":"Gyc76C + CG42637","dsRNA":"DRSC11180","raw ATP luminescence, replicate 1":22383,"raw ATP luminescence, replicate 2":16560}
{"Target gene":"PIG-N (GeneID 36049)","dsRNA":"DRSC06837","raw ATP luminescence, replicate 1":38837,"raw ATP luminescence, replicate 2":82167}
{"Target gene":"blo (GeneID 35866)","dsRNA":"DRSC05937","raw ATP luminescence, replicate 1":43077,"raw ATP luminescence, replicate 2":39663}
{"Target gene":"CG33768 (GeneID 3771840)","dsRNA":"DRSC11715","raw ATP luminescence, replicate 1":53337,"raw ATP luminescence, replicate 2":49437}
{"Target gene":"Art1 (GeneID 41295)","dsRNA":"DRSC16063","raw ATP luminescence, replicate 1":51367,"raw ATP luminescence, replicate 2":21090}
{"Target gene":"CG13557 (GeneID 37717)","dsRNA":"DRSC04195","raw ATP luminescence, replicate 1":60473,"raw ATP luminescence, replicate 2":63147}
{"Target gene":"ltl (GeneID 38845)","dsRNA":"DRSC10206","raw ATP luminescence, replicate 1":86103,"raw ATP luminescence, replicate 2":81497}
{"Target gene":"ltl (GeneID 38845)","dsRNA":"DRSC10870","raw ATP luminescence, replicate 1":91753,"raw ATP luminescence, replicate 2":91163}
{"Target gene":"Lcp65Ab2 + Lcp65Ab1","dsRNA":"DRSC10340","raw ATP luminescence, replicate 1":83697,"raw ATP luminescence, replicate 2":81647}
{"Target gene":"Lcp65Ab2 + Lcp65Ab1","dsRNA":"DRSC10343","raw ATP luminescence, replicate 1":96593,"raw ATP luminescence, replicate 2":99380}
{"Target gene":"LManII (GeneID 34437)","dsRNA":"DRSC01986","raw ATP luminescence, replicate 1":72507,"raw ATP luminescence, replicate 2":57933}

In a second layout: results already given.
Target gene | dsRNA | raw ATP luminescence, replicate 1 | raw ATP luminescence, replicate 2
ltl (GeneID 38845) | DRSC10206 | 86103 | 81497
ltl (GeneID 38845) | DRSC10870 | 91753 | 91163
